The other results are listed elsewhere or left out. Most values lie at the level of the controls, where differences are scatter.
Compound: CN[C@@H]1C[C@H]2O[C@@](C)([C@@H]1OC)n1c3ccccc3c3c4c(c5c6ccccc6n2c5c31)C(=O)NC4 [staurosporine]
Test: log2 fold change of pooled soluble protein (PISA), ligand vs vehicle (log2 ratio); higher = more thermally stabilized
Settings: ligand concentration: 20 uM; assay format: PISA pool 52.9/55.5/58.6 C

Protein sequences, listed by entry. Tags and fused reporters are not part of them. Lines headed by an entry give the natural chain unless they say otherwise; changes in a name come on top.
UniProt Q9CR64: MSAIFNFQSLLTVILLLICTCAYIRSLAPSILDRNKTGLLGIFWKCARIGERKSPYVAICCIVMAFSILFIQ
UniProt Q9CQC9: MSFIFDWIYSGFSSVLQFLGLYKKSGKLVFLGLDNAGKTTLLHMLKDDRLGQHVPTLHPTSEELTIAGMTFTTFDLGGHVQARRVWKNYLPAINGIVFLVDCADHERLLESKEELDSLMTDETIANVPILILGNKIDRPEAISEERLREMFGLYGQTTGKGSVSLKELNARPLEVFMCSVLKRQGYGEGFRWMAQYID
UniProt Q9CPP6: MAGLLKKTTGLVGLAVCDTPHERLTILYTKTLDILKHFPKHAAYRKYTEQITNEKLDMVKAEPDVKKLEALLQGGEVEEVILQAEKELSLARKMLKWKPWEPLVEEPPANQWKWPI
UniProt Q99JY4: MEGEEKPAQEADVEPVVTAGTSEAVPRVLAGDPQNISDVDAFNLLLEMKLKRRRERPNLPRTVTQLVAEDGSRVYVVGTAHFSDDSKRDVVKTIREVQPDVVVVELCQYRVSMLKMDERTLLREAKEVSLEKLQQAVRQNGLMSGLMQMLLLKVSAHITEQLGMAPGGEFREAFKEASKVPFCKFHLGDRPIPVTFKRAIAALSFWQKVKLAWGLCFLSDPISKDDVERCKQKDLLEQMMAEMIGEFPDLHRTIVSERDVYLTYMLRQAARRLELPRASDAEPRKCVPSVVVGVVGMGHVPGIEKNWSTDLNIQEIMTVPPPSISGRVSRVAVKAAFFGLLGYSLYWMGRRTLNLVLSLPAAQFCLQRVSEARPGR
UniProt Q9CXI5: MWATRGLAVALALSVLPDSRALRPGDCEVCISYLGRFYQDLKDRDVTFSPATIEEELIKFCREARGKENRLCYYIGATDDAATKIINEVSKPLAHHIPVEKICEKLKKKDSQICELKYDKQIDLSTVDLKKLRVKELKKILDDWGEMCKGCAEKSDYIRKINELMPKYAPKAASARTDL
UniProt Q99MN9: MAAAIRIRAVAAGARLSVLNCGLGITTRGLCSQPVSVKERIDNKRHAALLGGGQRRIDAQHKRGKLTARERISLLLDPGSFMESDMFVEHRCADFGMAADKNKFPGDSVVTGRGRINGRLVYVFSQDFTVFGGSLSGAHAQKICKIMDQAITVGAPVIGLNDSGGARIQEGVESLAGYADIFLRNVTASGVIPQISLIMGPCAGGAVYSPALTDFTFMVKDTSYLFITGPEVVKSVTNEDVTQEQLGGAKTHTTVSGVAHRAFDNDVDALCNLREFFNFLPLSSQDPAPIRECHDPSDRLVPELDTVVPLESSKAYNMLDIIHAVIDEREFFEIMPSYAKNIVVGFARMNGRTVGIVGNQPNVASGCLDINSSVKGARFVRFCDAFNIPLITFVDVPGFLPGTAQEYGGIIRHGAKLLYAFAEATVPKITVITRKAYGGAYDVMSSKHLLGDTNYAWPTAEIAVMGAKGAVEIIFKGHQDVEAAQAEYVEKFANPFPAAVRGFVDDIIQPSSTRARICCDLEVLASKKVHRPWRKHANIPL
UniProt Q99KK1: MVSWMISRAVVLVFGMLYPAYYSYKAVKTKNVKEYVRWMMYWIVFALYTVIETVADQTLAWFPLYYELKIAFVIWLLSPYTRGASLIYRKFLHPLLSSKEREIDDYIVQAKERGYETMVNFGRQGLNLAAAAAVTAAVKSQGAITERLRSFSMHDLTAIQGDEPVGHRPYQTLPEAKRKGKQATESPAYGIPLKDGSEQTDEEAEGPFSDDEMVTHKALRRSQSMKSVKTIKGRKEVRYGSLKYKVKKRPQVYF
UniProt Q99JT5: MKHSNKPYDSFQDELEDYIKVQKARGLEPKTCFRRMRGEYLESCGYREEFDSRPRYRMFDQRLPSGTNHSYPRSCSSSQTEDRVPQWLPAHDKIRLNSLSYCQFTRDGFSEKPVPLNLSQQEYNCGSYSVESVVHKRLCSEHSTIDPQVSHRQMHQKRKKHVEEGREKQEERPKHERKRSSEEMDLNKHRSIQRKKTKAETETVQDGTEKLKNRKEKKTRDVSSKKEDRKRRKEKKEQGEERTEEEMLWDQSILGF
UniProt Q9CW46: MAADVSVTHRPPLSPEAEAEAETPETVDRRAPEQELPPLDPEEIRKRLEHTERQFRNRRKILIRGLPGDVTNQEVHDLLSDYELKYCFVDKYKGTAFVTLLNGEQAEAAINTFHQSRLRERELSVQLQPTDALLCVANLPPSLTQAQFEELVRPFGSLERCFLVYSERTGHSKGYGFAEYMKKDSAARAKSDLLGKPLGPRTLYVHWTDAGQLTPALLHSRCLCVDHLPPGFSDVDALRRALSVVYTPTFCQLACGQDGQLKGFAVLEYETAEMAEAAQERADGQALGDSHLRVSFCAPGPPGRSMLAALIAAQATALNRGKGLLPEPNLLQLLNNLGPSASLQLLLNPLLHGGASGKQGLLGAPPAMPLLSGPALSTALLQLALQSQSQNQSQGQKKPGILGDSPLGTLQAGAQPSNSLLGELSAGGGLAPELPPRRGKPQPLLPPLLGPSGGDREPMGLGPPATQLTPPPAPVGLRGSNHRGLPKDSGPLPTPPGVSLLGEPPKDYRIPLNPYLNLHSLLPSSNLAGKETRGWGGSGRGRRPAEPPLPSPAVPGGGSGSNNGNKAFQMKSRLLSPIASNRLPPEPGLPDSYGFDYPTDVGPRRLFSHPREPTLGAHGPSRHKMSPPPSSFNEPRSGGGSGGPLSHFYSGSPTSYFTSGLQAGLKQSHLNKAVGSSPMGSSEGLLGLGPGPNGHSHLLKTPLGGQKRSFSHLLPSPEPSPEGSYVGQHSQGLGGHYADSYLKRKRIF
UniProt Q99MP8: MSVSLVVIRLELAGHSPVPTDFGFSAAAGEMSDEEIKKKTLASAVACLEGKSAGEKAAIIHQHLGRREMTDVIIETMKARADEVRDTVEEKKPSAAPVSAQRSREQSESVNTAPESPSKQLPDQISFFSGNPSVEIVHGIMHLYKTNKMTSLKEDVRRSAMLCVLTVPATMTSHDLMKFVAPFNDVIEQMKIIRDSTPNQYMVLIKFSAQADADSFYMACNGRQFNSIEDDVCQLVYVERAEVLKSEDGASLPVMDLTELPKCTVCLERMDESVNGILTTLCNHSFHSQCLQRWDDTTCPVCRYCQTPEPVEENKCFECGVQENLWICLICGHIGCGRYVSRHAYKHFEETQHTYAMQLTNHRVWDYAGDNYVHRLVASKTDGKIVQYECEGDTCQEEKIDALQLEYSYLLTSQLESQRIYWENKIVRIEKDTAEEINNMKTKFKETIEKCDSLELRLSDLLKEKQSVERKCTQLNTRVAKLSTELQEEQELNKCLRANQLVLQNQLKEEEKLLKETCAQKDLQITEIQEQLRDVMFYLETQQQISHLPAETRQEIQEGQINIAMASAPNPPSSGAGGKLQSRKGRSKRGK
UniProt Q9CRA8, whole entry: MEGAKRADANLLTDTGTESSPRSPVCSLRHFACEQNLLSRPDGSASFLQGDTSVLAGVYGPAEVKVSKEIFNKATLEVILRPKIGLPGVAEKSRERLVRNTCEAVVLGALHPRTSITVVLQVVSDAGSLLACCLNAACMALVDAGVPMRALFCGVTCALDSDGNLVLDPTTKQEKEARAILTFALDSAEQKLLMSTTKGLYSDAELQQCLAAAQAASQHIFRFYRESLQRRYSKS
UniProt Q99MI1: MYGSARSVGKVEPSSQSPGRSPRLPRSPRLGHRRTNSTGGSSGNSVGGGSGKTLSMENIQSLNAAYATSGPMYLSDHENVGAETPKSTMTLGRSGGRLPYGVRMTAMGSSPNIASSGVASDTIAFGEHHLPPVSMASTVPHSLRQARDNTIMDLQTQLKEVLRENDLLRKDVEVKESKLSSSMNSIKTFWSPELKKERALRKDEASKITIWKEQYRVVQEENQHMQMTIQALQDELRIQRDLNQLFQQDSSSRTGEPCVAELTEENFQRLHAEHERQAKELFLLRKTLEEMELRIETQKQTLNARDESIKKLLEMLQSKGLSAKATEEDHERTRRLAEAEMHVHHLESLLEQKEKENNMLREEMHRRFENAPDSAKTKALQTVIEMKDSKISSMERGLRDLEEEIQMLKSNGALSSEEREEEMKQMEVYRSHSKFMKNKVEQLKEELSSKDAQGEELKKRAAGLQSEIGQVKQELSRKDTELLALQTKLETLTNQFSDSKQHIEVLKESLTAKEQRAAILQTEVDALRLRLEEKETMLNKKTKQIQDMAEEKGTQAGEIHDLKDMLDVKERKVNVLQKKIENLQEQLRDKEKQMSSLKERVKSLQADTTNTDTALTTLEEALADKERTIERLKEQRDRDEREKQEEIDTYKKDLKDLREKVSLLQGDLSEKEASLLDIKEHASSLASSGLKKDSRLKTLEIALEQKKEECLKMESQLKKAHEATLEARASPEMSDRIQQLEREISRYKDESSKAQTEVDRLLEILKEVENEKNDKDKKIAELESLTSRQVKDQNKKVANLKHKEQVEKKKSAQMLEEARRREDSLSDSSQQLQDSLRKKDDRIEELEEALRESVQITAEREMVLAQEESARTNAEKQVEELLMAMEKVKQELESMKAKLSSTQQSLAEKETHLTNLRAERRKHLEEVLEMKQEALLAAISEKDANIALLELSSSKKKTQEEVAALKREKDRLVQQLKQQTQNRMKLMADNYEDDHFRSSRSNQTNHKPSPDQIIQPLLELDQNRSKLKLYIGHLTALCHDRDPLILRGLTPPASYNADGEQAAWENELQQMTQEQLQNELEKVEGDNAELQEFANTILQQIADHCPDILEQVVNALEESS
UniProt Q99L02, whole entry: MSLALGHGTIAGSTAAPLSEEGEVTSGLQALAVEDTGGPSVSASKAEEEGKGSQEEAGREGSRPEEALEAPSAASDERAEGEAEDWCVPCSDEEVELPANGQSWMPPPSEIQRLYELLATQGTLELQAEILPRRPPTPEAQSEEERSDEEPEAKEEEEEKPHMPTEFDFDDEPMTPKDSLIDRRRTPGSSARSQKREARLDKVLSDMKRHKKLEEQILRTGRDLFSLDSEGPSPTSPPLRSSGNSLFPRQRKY
UniProt Q9CSN1: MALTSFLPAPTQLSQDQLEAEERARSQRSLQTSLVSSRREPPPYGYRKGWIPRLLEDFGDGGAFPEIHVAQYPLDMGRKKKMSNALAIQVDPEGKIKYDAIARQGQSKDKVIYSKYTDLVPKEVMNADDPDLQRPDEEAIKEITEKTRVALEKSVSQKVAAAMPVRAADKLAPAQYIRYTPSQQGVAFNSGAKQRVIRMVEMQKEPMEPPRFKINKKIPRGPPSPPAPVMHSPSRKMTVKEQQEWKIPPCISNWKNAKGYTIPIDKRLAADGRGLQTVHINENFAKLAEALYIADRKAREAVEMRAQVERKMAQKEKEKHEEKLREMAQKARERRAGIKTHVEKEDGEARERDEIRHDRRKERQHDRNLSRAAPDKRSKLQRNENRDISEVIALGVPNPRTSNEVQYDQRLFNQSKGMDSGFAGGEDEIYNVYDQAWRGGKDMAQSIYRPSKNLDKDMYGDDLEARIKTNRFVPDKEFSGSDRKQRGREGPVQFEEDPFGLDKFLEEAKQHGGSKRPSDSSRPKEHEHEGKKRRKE
UniProt Q99JR1: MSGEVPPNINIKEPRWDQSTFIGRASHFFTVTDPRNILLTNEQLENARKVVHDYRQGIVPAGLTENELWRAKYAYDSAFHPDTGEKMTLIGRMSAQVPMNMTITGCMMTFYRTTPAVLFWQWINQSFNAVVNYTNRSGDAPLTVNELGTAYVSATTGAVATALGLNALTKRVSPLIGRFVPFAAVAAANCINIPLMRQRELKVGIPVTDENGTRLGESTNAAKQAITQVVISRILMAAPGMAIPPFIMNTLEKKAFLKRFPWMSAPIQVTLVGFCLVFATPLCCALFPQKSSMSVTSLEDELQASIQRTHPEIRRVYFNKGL
UniProt Q99MD9, whole entry: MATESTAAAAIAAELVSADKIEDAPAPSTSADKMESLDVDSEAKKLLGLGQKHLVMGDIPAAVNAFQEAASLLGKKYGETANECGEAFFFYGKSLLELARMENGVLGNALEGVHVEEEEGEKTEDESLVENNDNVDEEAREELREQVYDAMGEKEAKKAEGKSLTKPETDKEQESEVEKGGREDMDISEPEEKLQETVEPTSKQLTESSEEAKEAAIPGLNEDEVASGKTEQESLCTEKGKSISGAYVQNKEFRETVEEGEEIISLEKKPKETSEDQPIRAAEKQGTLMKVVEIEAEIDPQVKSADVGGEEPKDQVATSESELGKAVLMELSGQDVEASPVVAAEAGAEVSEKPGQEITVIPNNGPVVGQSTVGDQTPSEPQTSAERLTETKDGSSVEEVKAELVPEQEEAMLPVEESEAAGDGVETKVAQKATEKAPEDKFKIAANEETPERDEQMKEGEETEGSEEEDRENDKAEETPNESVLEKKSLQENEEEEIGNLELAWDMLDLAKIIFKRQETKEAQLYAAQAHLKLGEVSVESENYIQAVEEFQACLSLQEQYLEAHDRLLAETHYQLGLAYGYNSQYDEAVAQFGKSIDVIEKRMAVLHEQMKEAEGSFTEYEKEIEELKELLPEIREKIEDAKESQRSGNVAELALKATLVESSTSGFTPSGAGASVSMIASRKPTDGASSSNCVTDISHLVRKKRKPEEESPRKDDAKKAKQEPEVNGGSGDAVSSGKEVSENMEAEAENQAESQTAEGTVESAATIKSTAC

Target	log2 fold change of pooled soluble protein
UniProt Q9CR64	-0.00105
UniProt Q9CQC9	-0.266
UniProt Q9CPP6	0.0801
UniProt Q9CX98	0.043
UniProt Q9CR50	0.0495
UniProt Q99JY4	0.0564
UniProt Q9CXI5	0.104
UniProt Q99K70	0.0931
UniProt Q9CR80	-0.387
UniProt Q99KK9	-0.0281
UniProt Q99MN9	0.00342
UniProt Q99KK1	0.0179
UniProt Q99JT5	-0.125
UniProt Q9CW46	0.127
UniProt Q9CSV6	-0.167
UniProt Q99LY9	0.00565
UniProt Q99MP8	0.0492
UniProt Q9CQJ6	-0.113

Another view of some results above.
UniProt Q99MN9
  log2 fold change of pooled soluble protein: 0.00342
UniProt Q99KK1
  log2 fold change of pooled soluble protein: 0.0179
UniProt Q99JT5
  log2 fold change of pooled soluble protein: -0.125

Following part:

Target	log2 fold change of pooled soluble protein
UniProt Q99P31	-0.00356
UniProt Q9CRA8	-0.0297
UniProt Q99KB8	-0.0266
UniProt Q9CQK7	0.155
UniProt Q9CPS6	0.000237
UniProt Q9CQ91	0.044
UniProt Q9CPW3	-0.229
UniProt Q99MI1	0.036
UniProt Q99LC8	0.335
UniProt Q99L02	-0.417
UniProt Q99KS2	-0.297
UniProt Q9CSN1	-0.00347
UniProt Q99KW3	-0.0107
UniProt Q9CPY7	-0.356
UniProt Q99JR1	-0.12
UniProt Q99NF1	0.218
UniProt Q9CWM4	-0.396
UniProt Q99MD9	0.0475

From the supplement of paper PMC12819154, “High-throughput peptide-centric local stability assay extends protein–ligand identification to membrane proteins, tissues and bacteria” (Nature Structural & Molecular Biology, 2025)
